The text below walks through data of the supplement of paper PMC6411743.

Sequences of proteins named here, by UniProt entry; tags and fusion partners are left off. A change or cut given only in a name is not applied to a line headed by its entry.
UniProt Q9UMZ2: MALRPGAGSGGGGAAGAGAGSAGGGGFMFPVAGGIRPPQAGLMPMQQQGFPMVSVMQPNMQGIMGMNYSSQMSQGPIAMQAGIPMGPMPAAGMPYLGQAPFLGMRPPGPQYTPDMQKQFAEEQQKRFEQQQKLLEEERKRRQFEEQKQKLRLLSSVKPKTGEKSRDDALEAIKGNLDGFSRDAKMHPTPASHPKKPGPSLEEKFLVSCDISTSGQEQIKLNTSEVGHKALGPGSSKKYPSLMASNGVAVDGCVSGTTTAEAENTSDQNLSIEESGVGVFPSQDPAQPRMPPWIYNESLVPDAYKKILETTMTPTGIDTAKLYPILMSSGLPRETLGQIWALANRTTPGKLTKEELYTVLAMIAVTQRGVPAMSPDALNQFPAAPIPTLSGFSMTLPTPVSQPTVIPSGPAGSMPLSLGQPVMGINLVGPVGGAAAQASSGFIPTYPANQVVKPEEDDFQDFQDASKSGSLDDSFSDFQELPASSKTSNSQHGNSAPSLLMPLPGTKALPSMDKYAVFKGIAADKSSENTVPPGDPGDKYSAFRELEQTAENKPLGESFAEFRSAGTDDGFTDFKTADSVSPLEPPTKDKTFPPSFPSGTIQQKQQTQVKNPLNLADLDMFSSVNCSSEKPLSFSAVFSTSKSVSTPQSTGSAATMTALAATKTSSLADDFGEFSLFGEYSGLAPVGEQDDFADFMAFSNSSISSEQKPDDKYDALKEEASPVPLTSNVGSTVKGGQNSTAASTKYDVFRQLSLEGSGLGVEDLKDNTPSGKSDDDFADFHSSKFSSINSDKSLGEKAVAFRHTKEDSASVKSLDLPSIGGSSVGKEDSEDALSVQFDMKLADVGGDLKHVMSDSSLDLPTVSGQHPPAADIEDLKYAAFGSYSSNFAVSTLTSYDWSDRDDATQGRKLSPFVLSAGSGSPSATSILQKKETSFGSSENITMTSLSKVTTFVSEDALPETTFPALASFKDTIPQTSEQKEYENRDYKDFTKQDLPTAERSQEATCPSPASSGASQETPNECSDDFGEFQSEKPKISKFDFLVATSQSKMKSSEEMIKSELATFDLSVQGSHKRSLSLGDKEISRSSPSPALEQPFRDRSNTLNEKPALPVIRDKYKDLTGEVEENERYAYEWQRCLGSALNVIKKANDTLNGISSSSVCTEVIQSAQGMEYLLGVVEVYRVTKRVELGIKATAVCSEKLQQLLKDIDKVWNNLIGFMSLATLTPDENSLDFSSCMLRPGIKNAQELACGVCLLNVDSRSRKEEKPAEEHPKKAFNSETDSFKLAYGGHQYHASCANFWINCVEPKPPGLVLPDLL
UniProt Q9Y3P9: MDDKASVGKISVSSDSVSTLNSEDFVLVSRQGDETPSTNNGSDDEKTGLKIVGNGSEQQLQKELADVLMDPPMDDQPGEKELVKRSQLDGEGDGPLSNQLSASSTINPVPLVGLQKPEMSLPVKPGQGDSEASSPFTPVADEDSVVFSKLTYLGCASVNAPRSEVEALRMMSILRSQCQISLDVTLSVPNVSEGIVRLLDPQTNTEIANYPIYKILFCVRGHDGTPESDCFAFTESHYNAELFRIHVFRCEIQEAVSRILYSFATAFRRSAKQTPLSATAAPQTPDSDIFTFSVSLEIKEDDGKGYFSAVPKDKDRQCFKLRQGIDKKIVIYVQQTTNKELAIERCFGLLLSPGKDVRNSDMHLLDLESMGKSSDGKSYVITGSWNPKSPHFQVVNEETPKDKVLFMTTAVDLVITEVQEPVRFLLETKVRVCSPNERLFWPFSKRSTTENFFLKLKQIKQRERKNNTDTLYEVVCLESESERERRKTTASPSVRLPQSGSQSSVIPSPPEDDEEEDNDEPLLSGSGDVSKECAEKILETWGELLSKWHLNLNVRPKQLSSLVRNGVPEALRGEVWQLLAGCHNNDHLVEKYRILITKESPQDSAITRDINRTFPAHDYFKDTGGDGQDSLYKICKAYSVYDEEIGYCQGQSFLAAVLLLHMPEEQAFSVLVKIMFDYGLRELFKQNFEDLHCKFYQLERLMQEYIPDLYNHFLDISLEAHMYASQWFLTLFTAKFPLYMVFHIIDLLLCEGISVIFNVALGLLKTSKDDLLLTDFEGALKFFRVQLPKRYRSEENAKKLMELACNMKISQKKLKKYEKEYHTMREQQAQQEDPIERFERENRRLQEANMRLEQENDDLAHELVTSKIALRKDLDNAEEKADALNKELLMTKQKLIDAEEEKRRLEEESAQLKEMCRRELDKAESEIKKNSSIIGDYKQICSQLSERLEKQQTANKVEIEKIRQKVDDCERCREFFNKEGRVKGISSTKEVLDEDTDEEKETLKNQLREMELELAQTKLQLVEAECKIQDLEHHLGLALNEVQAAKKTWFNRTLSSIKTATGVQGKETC
UniProt Q9Y2Z4: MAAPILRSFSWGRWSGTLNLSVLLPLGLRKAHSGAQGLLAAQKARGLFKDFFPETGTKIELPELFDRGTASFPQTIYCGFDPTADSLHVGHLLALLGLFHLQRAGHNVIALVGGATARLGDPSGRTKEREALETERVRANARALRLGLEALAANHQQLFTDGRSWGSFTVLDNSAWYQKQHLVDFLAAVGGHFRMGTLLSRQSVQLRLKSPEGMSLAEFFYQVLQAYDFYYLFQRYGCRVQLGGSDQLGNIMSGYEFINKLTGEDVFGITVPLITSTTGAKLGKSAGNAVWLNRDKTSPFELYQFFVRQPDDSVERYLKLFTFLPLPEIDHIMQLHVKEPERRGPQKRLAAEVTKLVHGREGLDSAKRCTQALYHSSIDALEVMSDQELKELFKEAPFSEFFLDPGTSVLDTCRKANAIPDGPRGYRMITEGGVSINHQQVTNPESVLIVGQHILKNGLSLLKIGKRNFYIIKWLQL
UniProt Q9Y2V2: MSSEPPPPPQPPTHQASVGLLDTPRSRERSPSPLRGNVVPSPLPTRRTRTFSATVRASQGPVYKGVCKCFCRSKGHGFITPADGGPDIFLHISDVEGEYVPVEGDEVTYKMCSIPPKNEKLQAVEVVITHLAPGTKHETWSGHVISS
UniProt Q9Y4P8: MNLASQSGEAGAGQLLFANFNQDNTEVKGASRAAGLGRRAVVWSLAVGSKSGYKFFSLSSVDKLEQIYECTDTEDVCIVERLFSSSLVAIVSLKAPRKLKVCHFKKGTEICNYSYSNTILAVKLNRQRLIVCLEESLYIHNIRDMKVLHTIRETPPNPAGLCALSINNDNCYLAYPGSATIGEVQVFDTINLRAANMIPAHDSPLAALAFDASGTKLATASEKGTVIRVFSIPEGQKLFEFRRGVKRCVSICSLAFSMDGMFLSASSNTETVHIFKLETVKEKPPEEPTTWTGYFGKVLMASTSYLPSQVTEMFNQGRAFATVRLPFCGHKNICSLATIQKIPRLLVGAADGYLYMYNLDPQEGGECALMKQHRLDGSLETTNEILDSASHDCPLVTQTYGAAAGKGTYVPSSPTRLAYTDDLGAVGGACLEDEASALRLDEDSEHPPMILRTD
UniProt Q9Y4X5: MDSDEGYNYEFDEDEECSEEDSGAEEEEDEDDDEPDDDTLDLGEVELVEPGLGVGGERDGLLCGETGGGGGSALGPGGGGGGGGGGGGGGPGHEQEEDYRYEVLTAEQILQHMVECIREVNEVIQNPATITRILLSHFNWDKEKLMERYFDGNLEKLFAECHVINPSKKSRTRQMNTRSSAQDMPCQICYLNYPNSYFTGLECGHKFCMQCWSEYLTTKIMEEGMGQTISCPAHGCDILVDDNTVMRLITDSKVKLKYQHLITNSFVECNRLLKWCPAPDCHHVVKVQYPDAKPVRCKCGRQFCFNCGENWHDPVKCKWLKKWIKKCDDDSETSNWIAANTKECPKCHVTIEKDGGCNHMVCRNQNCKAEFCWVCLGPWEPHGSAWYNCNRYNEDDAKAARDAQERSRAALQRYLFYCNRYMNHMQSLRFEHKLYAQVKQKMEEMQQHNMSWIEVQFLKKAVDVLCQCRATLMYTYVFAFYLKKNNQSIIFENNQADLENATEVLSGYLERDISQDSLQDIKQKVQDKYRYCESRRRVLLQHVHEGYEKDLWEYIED
UniProt Q9Y4G6: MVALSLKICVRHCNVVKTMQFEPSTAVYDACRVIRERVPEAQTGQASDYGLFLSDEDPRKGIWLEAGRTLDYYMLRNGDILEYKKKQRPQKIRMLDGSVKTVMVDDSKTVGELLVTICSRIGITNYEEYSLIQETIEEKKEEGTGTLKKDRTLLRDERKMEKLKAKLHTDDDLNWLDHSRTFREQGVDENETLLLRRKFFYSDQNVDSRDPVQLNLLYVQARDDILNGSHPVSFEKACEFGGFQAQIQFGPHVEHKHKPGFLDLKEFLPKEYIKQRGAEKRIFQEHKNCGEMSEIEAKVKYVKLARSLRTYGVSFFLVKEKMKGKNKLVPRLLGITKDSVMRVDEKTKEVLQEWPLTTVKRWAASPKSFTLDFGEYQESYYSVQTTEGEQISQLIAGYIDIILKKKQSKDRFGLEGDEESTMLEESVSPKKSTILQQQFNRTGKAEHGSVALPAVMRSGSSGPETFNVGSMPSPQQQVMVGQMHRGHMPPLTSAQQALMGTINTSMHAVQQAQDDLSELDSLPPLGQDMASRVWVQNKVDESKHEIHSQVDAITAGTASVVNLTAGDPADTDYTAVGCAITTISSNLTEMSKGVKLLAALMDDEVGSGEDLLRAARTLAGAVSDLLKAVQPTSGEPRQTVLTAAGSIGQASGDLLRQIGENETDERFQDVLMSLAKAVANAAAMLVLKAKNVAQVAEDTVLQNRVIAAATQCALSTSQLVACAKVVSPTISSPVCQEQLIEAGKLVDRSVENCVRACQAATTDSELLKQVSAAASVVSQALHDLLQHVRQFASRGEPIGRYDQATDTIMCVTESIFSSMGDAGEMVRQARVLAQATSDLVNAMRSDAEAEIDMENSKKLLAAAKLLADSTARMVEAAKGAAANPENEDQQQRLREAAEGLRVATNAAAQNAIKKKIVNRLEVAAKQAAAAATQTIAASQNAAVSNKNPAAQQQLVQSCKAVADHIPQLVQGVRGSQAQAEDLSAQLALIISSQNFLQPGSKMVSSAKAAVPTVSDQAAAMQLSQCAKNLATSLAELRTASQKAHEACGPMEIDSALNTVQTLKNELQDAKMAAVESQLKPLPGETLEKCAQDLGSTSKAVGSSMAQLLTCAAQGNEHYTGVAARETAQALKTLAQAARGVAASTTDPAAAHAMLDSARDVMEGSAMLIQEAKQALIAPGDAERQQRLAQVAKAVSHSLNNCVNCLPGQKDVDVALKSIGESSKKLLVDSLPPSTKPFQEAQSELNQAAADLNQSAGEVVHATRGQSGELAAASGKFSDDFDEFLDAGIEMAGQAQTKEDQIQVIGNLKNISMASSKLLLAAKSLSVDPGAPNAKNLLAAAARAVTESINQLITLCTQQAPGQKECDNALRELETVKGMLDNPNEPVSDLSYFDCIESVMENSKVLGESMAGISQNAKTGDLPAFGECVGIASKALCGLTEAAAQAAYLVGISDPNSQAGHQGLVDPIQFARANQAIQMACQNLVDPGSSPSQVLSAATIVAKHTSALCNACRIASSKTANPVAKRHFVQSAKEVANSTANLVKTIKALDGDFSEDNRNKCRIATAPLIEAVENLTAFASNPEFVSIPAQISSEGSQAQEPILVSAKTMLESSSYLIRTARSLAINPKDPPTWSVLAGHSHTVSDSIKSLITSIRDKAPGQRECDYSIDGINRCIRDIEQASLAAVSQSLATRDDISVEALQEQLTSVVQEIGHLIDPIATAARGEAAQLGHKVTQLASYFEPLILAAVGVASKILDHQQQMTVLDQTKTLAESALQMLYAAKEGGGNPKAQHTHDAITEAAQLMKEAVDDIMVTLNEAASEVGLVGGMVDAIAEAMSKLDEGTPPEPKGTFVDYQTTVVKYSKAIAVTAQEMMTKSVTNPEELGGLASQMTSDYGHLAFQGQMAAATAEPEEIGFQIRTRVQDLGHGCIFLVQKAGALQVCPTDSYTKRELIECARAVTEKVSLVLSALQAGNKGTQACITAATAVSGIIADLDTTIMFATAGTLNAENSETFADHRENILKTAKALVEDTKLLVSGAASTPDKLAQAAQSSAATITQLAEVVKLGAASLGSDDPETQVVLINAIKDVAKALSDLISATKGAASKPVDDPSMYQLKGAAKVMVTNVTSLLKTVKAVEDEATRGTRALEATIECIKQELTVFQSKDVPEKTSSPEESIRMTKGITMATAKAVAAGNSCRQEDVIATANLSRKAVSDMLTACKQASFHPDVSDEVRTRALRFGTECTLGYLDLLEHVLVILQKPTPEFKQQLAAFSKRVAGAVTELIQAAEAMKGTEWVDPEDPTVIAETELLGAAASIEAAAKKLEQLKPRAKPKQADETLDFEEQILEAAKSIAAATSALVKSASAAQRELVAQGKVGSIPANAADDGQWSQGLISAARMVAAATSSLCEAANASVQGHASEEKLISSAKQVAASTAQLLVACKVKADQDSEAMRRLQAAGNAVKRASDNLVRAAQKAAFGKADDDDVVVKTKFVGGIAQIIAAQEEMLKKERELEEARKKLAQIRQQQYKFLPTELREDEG

± gives the standard deviation of the averaged measurements. Some of the results follow.

Compound in one assay: Nc1nc2c(ncn2[C@@H]2O[C@H](COP(=O)(O)OP(=O)(O)OP(=O)(O)O)[C@@H](O)[C@H]2O)c(=O)[nH]1 [guanosine triphosphate]
Nature of the assay: NP40-soluble protein abundance relative to vehicle (solubility fold change) (ratio); higher = more soluble protein in presence of GTP. As to conditions: concentration: 0.1mM. The essentials: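 Eight concentrations, 0.1 to 10 mM, were tested on Jurkat crude lysate for 10 min at room temperature and then 3 min at 37 °C, in three independent experiments. The lysate was solubilised with 0.8% NP40 and benzonase, ultracentrifuged, and the supernatant TMT-labelled for LC-MS/MS. Each value is the fold change against the detergent-processed vehicle in its own replicate, from vsn-normalised intensities.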
Consider UniProt Q9Y3B7 and related entries, for which the NP40-soluble protein abundance worked out at 0.921 ± 0.17.

Regarding UniProt Q9UMZ2 and related entries, the NP40-soluble protein abundance came out at 0.981 ± 0.047.

RABGAP1 (UniProt Q9Y3P9): the NP40-soluble protein abundance is 0.983 ± 0.033.

UniProt Q9Y639 and related entries: the NP40-soluble protein abundance was 0.879 ± 0.045.

As for UniProt Q9Y697 and related entries, the NP40-soluble protein abundance was 1.05 ± 0.027.

As to UniProt Q9Y2H1, the NP40-soluble protein abundance turned out to be 1.07 ± 0.053.

For the target ENPP4 (UniProt Q9Y6X5), the NP40-soluble protein abundance is 0.933 ± 0.085.

UniProt Q9Y2G2 and related entries: the NP40-soluble protein abundance is 0.953 ± 0.066.

As to UniProt Q9Y2U5, the NP40-soluble protein abundance was determined as 1.05 ± 0.062.

Regarding SNX8 (UniProt Q9Y5X2), the NP40-soluble protein abundance was determined as 0.94 ± 0.036.

As for YARS2 (UniProt Q9Y2Z4), the NP40-soluble protein abundance worked out at 0.936 ± 0.066.

Take UniProt Q9Y2X0-2|Q9Y2X0-3|Q9Y2X0: the NP40-soluble protein abundance came to 1.09 ± 0.2.

UniProt Q9Y678: the NP40-soluble protein abundance is 1.04 ± 0.013.

As to UniProt Q9UN86-2|Q9UN86, the NP40-soluble protein abundance worked out at 0.99 ± 0.086.

Consider ZNF330 (UniProt Q9Y3S2), for which the NP40-soluble protein abundance came to 1.04 ± 0.054.

In the case of UniProt Q9Y2V2 and related entries, the NP40-soluble protein abundance turned out to be 0.887 ± 0.049.

Take SRPRB (UniProt Q9Y5M8): the NP40-soluble protein abundance is 0.975 ± 0.055.

Turning to SLC5A6 (UniProt Q9Y289), the NP40-soluble protein abundance is 1.04 ± 0.056.

With SMC3 (UniProt Q9UQE7), the NP40-soluble protein abundance was determined as 1 ± 0.025.

As for LEMD3 (UniProt Q9Y2U8), the NP40-soluble protein abundance stood at 0.989 ± 0.049.

ZNF148 (UniProt Q9UQR1): the NP40-soluble protein abundance was 0.942 ± 0.011.

Take TELO2 (UniProt Q9Y4R8): the NP40-soluble protein abundance stood at 1.02 ± 0.014.

Consider ICE1 (UniProt Q9Y2F5), for which the NP40-soluble protein abundance amounted to 1.09 ± 0.042.

With ASF1A (UniProt Q9Y294), the NP40-soluble protein abundance was 0.898 ± 0.14.

On to PRKAB1 (UniProt Q9Y478), for which the NP40-soluble protein abundance was found to be 1.05 ± 0.067.

Turning to UniProt Q9Y4P8 and related entries, the NP40-soluble protein abundance turned out to be 1.04 ± 0.11.

SUGT1 (UniProt Q9Y2Z0): the NP40-soluble protein abundance stood at 0.98 ± 0.031.

UniProt Q9Y3Y2 and related entries: the NP40-soluble protein abundance stood at 0.996 ± 0.053.

For the target DYNC1LI1 (UniProt Q9Y6G9), the NP40-soluble protein abundance came to 1 ± 0.011.

With UniProt Q9Y5V3 and related entries, the NP40-soluble protein abundance stood at 0.951 ± 0.025.

With UniProt Q9Y3C4 and related entries, the NP40-soluble protein abundance was determined as 1.02 ± 0.058.

Regarding CHKB (UniProt Q9Y259), the NP40-soluble protein abundance is 0.959 ± 0.13.

As for UniProt Q9Y6A4, the NP40-soluble protein abundance was 1.09 ± 0.027.

Take ARIH1 (UniProt Q9Y4X5): the NP40-soluble protein abundance amounted to 1.01 ± 0.035.

Consider TLN2 (UniProt Q9Y4G6), for which the NP40-soluble protein abundance is 0.976 ± 0.12.

For the target UniProt Q9Y3D0, the NP40-soluble protein abundance was 0.836 ± 0.067.

As to AP4E1 (UniProt Q9UPM8), the NP40-soluble protein abundance worked out at 1.17 ± 0.024.

For the target RBM19 (UniProt Q9Y4C8), the NP40-soluble protein abundance is 1 ± 0.059.

Staying with this assay, now noted: concentration: 0.5mM.
UniProt Q9Y3B7 and related entries: the NP40-soluble protein abundance turned out to be 0.966 ± 0.19.

Consider UniProt Q9UMZ2 and related entries, for which the NP40-soluble protein abundance was 0.965 ± 0.071.

On to RABGAP1 (UniProt Q9Y3P9), for which the NP40-soluble protein abundance was 0.989 ± 0.024.

With UniProt Q9Y639 and related entries, the NP40-soluble protein abundance was 0.86 ± 0.05.

UniProt Q9Y697 and related entries: the NP40-soluble protein abundance amounted to 1.02 ± 0.028.

Consider UniProt Q9Y2H1, for which the NP40-soluble protein abundance came out at 1.11 ± 0.1.

Take ENPP4 (UniProt Q9Y6X5): the NP40-soluble protein abundance is 0.899 ± 0.061.

On to UniProt Q9Y2G2 and related entries, for which the NP40-soluble protein abundance came to 1 ± 0.064.

As to UniProt Q9Y2U5, the NP40-soluble protein abundance turned out to be 0.992 ± 0.051.

Regarding SNX8 (UniProt Q9Y5X2), the NP40-soluble protein abundance was found to be 0.879 ± 0.045.

Consider YARS2 (UniProt Q9Y2Z4), for which the NP40-soluble protein abundance worked out at 1.02 ± 0.029.

Take UniProt Q9Y2X0-2|Q9Y2X0-3|Q9Y2X0: the NP40-soluble protein abundance was determined as 1.07 ± 0.21.

As for UniProt Q9Y678, the NP40-soluble protein abundance came out at 1.06 ± 0.025.

In the case of UniProt Q9UN86-2|Q9UN86, the NP40-soluble protein abundance is 1.02 ± 0.074.

As for ZNF330 (UniProt Q9Y3S2), the NP40-soluble protein abundance is 1.01 ± 0.061.

In the case of UniProt Q9Y2V2 and related entries, the NP40-soluble protein abundance amounted to 0.86 ± 0.075.

As for SRPRB (UniProt Q9Y5M8), the NP40-soluble protein abundance is 0.983 ± 0.066.

Turning to SLC5A6 (UniProt Q9Y289), the NP40-soluble protein abundance came out at 1.1 ± 0.067.

Consider SMC3 (UniProt Q9UQE7), for which the NP40-soluble protein abundance turned out to be 1.04 ± 0.012.

Take LEMD3 (UniProt Q9Y2U8): the NP40-soluble protein abundance was found to be 1 ± 0.038.

On to ZNF148 (UniProt Q9UQR1), for which the NP40-soluble protein abundance was 0.945 ± 0.043.

Turning to TELO2 (UniProt Q9Y4R8), the NP40-soluble protein abundance was found to be 1.03 ± 0.085.

In the case of ICE1 (UniProt Q9Y2F5), the NP40-soluble protein abundance is 1.13 ± 0.067.

As to ASF1A (UniProt Q9Y294), the NP40-soluble protein abundance amounted to 0.957 ± 0.14.

Consider PRKAB1 (UniProt Q9Y478), for which the NP40-soluble protein abundance was 1.01 ± 0.054.

As for UniProt Q9Y4P8 and related entries, the NP40-soluble protein abundance was determined as 1.01 ± 0.028.

With SUGT1 (UniProt Q9Y2Z0), the NP40-soluble protein abundance worked out at 0.958 ± 0.044.

With UniProt Q9Y3Y2 and related entries, the NP40-soluble protein abundance stood at 0.928 ± 0.097.

For DYNC1LI1 (UniProt Q9Y6G9), the NP40-soluble protein abundance is 1.06 ± 0.043.

UniProt Q9Y5V3 and related entries: the NP40-soluble protein abundance worked out at 1.01 ± 0.025.

On to UniProt Q9Y3C4 and related entries, for which the NP40-soluble protein abundance came out at 1.04 ± 0.12.

With CHKB (UniProt Q9Y259), the NP40-soluble protein abundance amounted to 0.937 ± 0.082.

Consider UniProt Q9Y6A4, for which the NP40-soluble protein abundance came to 1.04 ± 0.076.

ARIH1 (UniProt Q9Y4X5): the NP40-soluble protein abundance was found to be 1.02 ± 0.022.

As to TLN2 (UniProt Q9Y4G6), the NP40-soluble protein abundance was found to be 0.966 ± 0.091.

Regarding UniProt Q9Y3D0, the NP40-soluble protein abundance stood at 0.869 ± 0.033.

Regarding AP4E1 (UniProt Q9UPM8), the NP40-soluble protein abundance is 1.08 ± 0.13.

As to RBM19 (UniProt Q9Y4C8), the NP40-soluble protein abundance was found to be 1 ± 0.052.

The assay is the same for the next values; noted with them: concentration: 1mM.
As for UniProt Q9Y3B7 and related entries, the NP40-soluble protein abundance stood at 1.21 ± 0.31.

For UniProt Q9UMZ2 and related entries, the NP40-soluble protein abundance is 0.993 ± 0.065.

With RABGAP1 (UniProt Q9Y3P9), the NP40-soluble protein abundance is 0.943 ± 0.026.

Consider UniProt Q9Y639 and related entries, for which the NP40-soluble protein abundance worked out at 0.95 ± 0.035.

With UniProt Q9Y697 and related entries, the NP40-soluble protein abundance was found to be 0.974 ± 0.032.

As to UniProt Q9Y2H1, the NP40-soluble protein abundance came to 0.999 ± 0.035.

ENPP4 (UniProt Q9Y6X5): the NP40-soluble protein abundance stood at 0.976 ± 0.076.

For UniProt Q9Y2G2 and related entries, the NP40-soluble protein abundance was found to be 0.977 ± 0.093.

For the target UniProt Q9Y2U5, the NP40-soluble protein abundance worked out at 0.939 ± 0.011.

For SNX8 (UniProt Q9Y5X2), the NP40-soluble protein abundance was determined as 0.976 ± 0.065.

On to YARS2 (UniProt Q9Y2Z4), for which the NP40-soluble protein abundance amounted to 0.867 ± 0.025.

With UniProt Q9Y2X0-2|Q9Y2X0-3|Q9Y2X0, the NP40-soluble protein abundance was determined as 1.04 ± 0.17.

Consider UniProt Q9Y678, for which the NP40-soluble protein abundance was 1.03 ± 0.023.

Consider UniProt Q9UN86-2|Q9UN86, for which the NP40-soluble protein abundance amounted to 1.06 ± 0.08.

For ZNF330 (UniProt Q9Y3S2), the NP40-soluble protein abundance worked out at 0.985 ± 0.072.

As to UniProt Q9Y2V2 and related entries, the NP40-soluble protein abundance came out at 0.96 ± 0.061.

Take SRPRB (UniProt Q9Y5M8): the NP40-soluble protein abundance amounted to 0.987 ± 0.061.

Take SLC5A6 (UniProt Q9Y289): the NP40-soluble protein abundance worked out at 1.09 ± 0.07.

On to SMC3 (UniProt Q9UQE7), for which the NP40-soluble protein abundance is 1.025 ± 0.0043.

For LEMD3 (UniProt Q9Y2U8), the NP40-soluble protein abundance is 1.01 ± 0.037.

For the target ZNF148 (UniProt Q9UQR1), the NP40-soluble protein abundance amounted to 0.934 ± 0.029.

For the target TELO2 (UniProt Q9Y4R8), the NP40-soluble protein abundance was 0.999 ± 0.041.

For ICE1 (UniProt Q9Y2F5), the NP40-soluble protein abundance was found to be 1.14 ± 0.021.

For the target ASF1A (UniProt Q9Y294), the NP40-soluble protein abundance was 0.874 ± 0.06.

As for PRKAB1 (UniProt Q9Y478), the NP40-soluble protein abundance turned out to be 1.1 ± 0.027.

As for UniProt Q9Y4P8 and related entries, the NP40-soluble protein abundance was determined as 0.976 ± 0.11.

Turning to SUGT1 (UniProt Q9Y2Z0), the NP40-soluble protein abundance was 0.926 ± 0.03.

Take UniProt Q9Y3Y2 and related entries: the NP40-soluble protein abundance worked out at 1.05 ± 0.1.

As to DYNC1LI1 (UniProt Q9Y6G9), the NP40-soluble protein abundance stood at 1.1 ± 0.084.

As for UniProt Q9Y5V3 and related entries, the NP40-soluble protein abundance is 1.03 ± 0.075.

In the case of UniProt Q9Y3C4 and related entries, the NP40-soluble protein abundance is 0.964 ± 0.1.

With CHKB (UniProt Q9Y259), the NP40-soluble protein abundance came to 0.972 ± 0.21.

For the target UniProt Q9Y6A4, the NP40-soluble protein abundance was determined as 0.962 ± 0.024.

For ARIH1 (UniProt Q9Y4X5), the NP40-soluble protein abundance was found to be 0.966 ± 0.045.

For the target TLN2 (UniProt Q9Y4G6), the NP40-soluble protein abundance came to 1.05 ± 0.17.

Turning to UniProt Q9Y3D0, the NP40-soluble protein abundance is 1.02 ± 0.042.

Regarding AP4E1 (UniProt Q9UPM8), the NP40-soluble protein abundance was determined as 1.14 ± 0.062.

As for RBM19 (UniProt Q9Y4C8), the NP40-soluble protein abundance was 1.05 ± 0.077.
